Experimental data published in paper PMC10943085.

Sequences of proteins named here, by UniProt entry; tags and fusion partners are left off.
UniProt Q9C0B7: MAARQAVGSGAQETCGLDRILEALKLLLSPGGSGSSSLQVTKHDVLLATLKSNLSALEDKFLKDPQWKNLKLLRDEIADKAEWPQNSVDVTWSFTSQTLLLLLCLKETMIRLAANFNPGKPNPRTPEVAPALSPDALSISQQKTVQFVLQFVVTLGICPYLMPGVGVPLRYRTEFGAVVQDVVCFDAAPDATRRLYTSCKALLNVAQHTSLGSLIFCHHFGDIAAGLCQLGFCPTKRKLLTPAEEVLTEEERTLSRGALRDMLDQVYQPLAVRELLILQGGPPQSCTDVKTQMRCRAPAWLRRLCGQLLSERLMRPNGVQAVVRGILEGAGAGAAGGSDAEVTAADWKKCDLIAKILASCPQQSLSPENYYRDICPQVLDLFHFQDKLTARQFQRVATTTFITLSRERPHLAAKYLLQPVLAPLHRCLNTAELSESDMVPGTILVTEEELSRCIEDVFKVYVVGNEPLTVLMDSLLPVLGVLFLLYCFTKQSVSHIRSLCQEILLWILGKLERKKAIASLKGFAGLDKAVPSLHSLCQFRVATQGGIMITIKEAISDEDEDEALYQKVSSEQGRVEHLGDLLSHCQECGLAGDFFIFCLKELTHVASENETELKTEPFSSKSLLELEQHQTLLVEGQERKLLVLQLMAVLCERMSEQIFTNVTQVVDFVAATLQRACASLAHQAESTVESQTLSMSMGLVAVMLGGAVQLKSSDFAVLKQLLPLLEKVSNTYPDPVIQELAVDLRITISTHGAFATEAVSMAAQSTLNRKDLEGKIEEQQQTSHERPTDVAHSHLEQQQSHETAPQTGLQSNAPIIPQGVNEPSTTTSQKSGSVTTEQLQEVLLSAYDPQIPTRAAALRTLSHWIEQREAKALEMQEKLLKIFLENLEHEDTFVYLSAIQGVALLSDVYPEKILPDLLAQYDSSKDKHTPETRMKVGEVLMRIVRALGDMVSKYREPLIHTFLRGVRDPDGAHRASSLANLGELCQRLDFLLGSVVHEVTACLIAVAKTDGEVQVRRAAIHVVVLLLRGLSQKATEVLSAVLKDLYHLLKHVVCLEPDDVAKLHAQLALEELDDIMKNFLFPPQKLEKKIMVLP
UniProt P57678: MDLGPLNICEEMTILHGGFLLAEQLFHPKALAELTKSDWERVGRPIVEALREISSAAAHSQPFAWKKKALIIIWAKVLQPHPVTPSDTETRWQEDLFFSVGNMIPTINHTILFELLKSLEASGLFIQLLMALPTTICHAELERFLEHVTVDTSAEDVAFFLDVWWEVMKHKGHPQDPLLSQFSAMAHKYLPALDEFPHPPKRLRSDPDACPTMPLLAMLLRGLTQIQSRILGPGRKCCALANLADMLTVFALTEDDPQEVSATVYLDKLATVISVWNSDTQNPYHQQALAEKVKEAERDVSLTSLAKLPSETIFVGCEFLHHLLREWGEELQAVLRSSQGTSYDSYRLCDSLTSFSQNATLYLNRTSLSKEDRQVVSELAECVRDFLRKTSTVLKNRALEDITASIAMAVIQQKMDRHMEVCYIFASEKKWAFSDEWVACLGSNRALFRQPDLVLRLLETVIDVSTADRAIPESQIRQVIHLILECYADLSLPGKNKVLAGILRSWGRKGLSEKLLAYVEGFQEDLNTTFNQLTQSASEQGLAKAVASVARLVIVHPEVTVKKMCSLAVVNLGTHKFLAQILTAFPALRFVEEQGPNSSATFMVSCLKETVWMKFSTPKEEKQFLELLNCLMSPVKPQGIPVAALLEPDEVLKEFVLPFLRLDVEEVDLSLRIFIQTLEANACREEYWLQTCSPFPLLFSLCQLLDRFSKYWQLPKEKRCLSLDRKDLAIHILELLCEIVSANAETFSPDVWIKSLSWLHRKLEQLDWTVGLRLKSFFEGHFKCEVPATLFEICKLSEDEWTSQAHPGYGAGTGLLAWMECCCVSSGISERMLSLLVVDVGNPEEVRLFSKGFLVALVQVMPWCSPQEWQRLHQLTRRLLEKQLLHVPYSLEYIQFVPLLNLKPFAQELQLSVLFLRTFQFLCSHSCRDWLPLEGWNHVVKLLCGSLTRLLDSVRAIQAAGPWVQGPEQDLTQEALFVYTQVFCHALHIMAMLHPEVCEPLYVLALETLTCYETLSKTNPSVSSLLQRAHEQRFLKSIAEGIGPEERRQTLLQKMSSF

Target: endogenous TANGO6 (human (endogenous in U251)) (UniProt Q9C0B7)
Assay: affinity purification with mass spectrometry; endogenous TANGO6 pulled down from U251 cells with TANGO6 cross-linked beads; on-bead trypsin; Orbitrap Fusion; n = 1

| Molecule | binding |
| --- | --- |
| GEMIN4 (from UniProt P57678 1-1058) | binds |
| OAT (protein, UniProt P04181 26-439) TSVATKKTVQGPPTSDDIFEREYKYGAHNYHPLPVALERGKGIYLWDVEGRKYFDFLSSYSAVNQGHCHPKIVNALKSQVDKLTLTSRAFYNNVLGEYEEYITKLFNYHKVLPMNTGVEAGETACKLARKWGYTVKGIQKYKAKIVFAAGNFWGRTLSAISSSTDPTSYDGFGPFMPGFDIIPYNDLPALERALQDPNVAAFMVEPIQGEAGVVVPDPGYLMGVRELCTRHQVLFIADEIQTGLARTGRWLAVDYENVRPDIVLLGKALSGGLYPVSAVLCDDDIMLTIKPGEHGSTYGGNPLGCRVAIAALEVLEEENLAENADKLGIILRNELMKLPSDVVTAVRGKGLLNAIVIKETKDWDAWKVCLRLRDNGLLAKPTHGDIIRFAPPLVIKEDELRESIEIINKTILSF | binds |

These are yes or no findings as the source states them, for the method shown. Binding seen in cells or lysates may run through a third protein. These calls come from enrichment with a bait or labelling near it, and not all partners need be listed.
